Values of other authors in patent US10226455B2 (priority 2014, dated 2019).
At least one structure is not confirmed: it was looked up by name or label, or the drawing left a doubt.

Experiments:
P. vivax = settings: rifampicin alone; 60 patients; cited from earlier work
[1] = system: chloroquine-resistant C10 strain of P. falciparum; settings: in vitro; cited from earlier work
[2] = system: FCR3TC strain of P. falciparum; settings: in vitro; cited from earlier work
P. chabaudi = settings: pretreatment or daily post-infection treatment, 100-200 mg/kg; cited from earlier work

In the case of `CO[C@H]1/C=C/O[C@@]2(C)Oc3c(C)c(O)c4c(O)c(c(/C=N/N5CCN(C)CC5)c(O)c4c3C2=O)NC(=O)/C(C)=C\C=C\[C@H](C)[C@H](O)[C@@H](C)[C@@H](O)[C@@H](C)[C@H](OC(C)=O)[C@@H]1C` [rifampicin], the “efficacy against the parasite” value (P. vivax) is given as “not effective”, the effective concentration [1] is given as 2.5 µM and the “concentration at which strain exhibits sensitivity” value [2] is given as “approximately 3.2 uM”. For the same compound, the efficacy against infection (P. chabaudi) was “effective”.
